# Assay results reported in the supplement of paper PMC10338343.
# ± gives the standard deviation. The entries are a selection whose mix differs from that of the whole data set. Many of these values have a large error.
# System: MIWI (PIWIL1) piRISC loaded with piRNA #2 (30 nt)
# Experiment: pre-steady-state target cleavage rate (min^-1); MIWI and MILI are mouse PIWI proteins and EfPiwi is from a freshwater sponge; tags in brackets are library labels; higher = faster piRNA-guided slicing of the target
# Settings: guide: piRNA #2 5'p-UUAGGUAACCCAGUAGAUCCAGAGGAAUUC; auxiliary factor: 500 nM mouse GTSF1
# Procedure, shortened: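 The pre-steady-state cleavage rate came from a burst-and-steady-state fit to pooled data from three Cleave-'n-Seq trials, in which uncleaved targets were sequenced and normalised to depth and to weakly complementary targets. Each reaction held 0.1 nM transcribed, DNA-blocked target RNA library and 1 nM active affinity-purified piRISC carrying one synthetic guide, with or without 500 nM GTSF1 partner protein, in HEPES–potassium acetate buffer at 33 °C for 0–8 or 0–960 min. k3 was capped at 0.0001 min^-1.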
row,Sequence,pre-steady-state target cleavage rate
1,CUUAAGGACUGGAACUACUGGGUAACCUAA,0.00731 ± 0.012
2,CUUAAGGAGACGAUCUACUGGGUAUACCUAA,0.00188 ± 0.0057
3,CUUAAGGACUGGAUCUACUGGGUUACCCAA,0.00749 ± 0.011
4,GAAUUCCUCUGGAUCUACUCGGUUACGUAA,0.155 ± 0.021
5,CUUAAGGAGACCUUCUACUGGGUUCCUAA,0.000306 ± 0.013
6,CUUAAGGAGACCAUCUACUGGGAUACGUAA,0.000871 ± 0.01
7,CUUAAGGACUGGUUCUACUGGGUAACCUAA,0.00666 ± 0.014
8,CUUAAGGAGACCUACUACUGGAGUUACCUAA,0.00374 ± 0.0042
9,CUUUUCCUCUGGAACUAGUGGGUUACCUAA,0.204 ± 0.025
10,CUUAAGGAGAGCAUCUACUGGGUUACCAAA,0.00187 ± 0.0051
11,CUUAAGGAGACCUACUAUUGGGUUACCUAA,0.0011 ± 0.0092
12,CUUAAGGAGUGGAUGUACAGGGUUACCUAA,0.00457 ± 0.0054
13,CUUAAGGAGAGGAUCUACUGCGAUACCUAA,0.000558 ± 0.0092
14,CUUAAGGAGACCUAGAUGUGGUUACCUAA,0.00102 ± 0.0055
15,CUUAAGGAGACCUUCUACUGGGUUACCCUAA,0.00118 ± 0.0084
16,GAAUACCUCUGGAUCUACUGGGUUACGUAA,0.609 ± 0.038
17,CUUAAGGAGACCUAGAUGUGCGUUACGUAA,0.0013 ± 0.0038
18,CUUAAGGAGACGAUCUACUGGGUUACCUCA,0.00102 ± 0.0064
19,CUUAAGGAGACCAUCUACUGGCUUACCAAA,0.00182 ± 0.0033
20,CUUAAGGAGACCUAGUACUGAGUUACCUAA,0.00109 ± 0.008
21,CUUAAGGAGACCAUCUACUGGGUGUACCUAA,0.0012 ± 0.008
22,CUUAAGGAGAGCAUCUACAGGGUUACCUAA,0.00205 ± 0.0053
23,CUUAAGGAGACCUAGUACUGGGUUUACCUAA,0.000939 ± 0.0065
24,CUUAAGGAGACCUAGAUCUGGGUUACCUAC [g2:g13:cont:t1C],0.00086 ± 0.0081

# Part of the list above, with tabs:
row	Sequence	pre-steady-state target cleavage rate
18	CUUAAGGAGACGAUCUACUGGGUUACCUCA	0.00102 ± 0.0064
19	CUUAAGGAGACCAUCUACUGGCUUACCAAA	0.00182 ± 0.0033

# Continued.

row,Sequence,pre-steady-state target cleavage rate
1,CUUAAGGAGACCUACUACAUGGGUUACCUAA,0.0006 ± 0.016
2,CUUAACCUCUGGAUCUAGCUGGGUUACCUAA,0.000844 ± 0.0075
3,CUUAAGGAGACCAUCUAGCUGGGUUACCUAA,0.000786 ± 0.0094
4,CUUAUCCUCUGGAUCUACUGAGUUACCUAA,0.779 ± 0.05
5,CUUAAGGAGACCAUCUACUGGGUUACCUUA,0.00124 ± 0.0047
6,CUUAAGGAGACGAUCUAGUGGGUUACCAAA,0.00108 ± 0.0031
7,CUUAAGGACUGCUUCUACUGGGUUACCUAA,0.00105 ± 0.023
8,CUUAAGGAGUGGAUCUACUGGGUUAGGUAA,0.000793 ± 0.019
9,CUUAAGGACUGGAUCUACACCGUUACCUAA,0.00293 ± 0.0075
10,CUUAAGCUCUGGAUCUACUGAGGUUACCUAA,0.000383 ± 0.029
11,CUUAAGGAGAGGAUCUACUGGGUAUCCUAA,0.00179 ± 0.0069
12,CUUAAGGAGACCUAGAUCUGGGUAACCAAA,0.000198 ± 0.021
13,CUUAAGGAGUGGAUCUAUGGGUUACCUAA,0.000492 ± 0.016
14,CUUAAGGAGACGAAGUACUGGGUUACCUAA,0.000205 ± 0.02
15,CUUAAGGAGACCAUCUACUGGGAAUCCUAA,0.0011 ± 0.0072
16,CUUAAGGAGACCAUCUACUGGGUAACCAAA,0.000402 ± 0.016
17,CUUUUCCUCUGGAUCUACUCCCAAUGGAUA [g12:g27:cont:t1A],0.000279 ± 0.03
18,CUUAAGGAGACCUAGAUGUGGAGUUACCUAA,0.00171 ± 0.0046
19,CUUAAGGAGACCUAGAUGAGUGUUACCUAA,0.000291 ± 0.019
20,CUUAAGGAGACCACCUACUGGGUUACCUAA,0.00311 ± 0.0043
21,CUUAAGGAGACCUUCUACUGGGUUACCAAA,0.00151 ± 0.0071
22,CAAUUCCUCUGGAUCUACUGGGUACCUAA,0.00238 ± 0.0047
23,CUUAAGGAGACCUACUACUGGGUUACGAUA,0.000251 ± 0.015
24,CUUAAGGAGUCGAUCUACUGGGUUACCUUA,0.000626 ± 0.014

row,Sequence,pre-steady-state target cleavage rate
1,CUUAAGGAGACCUAGAUGAGGGGUACCUAA,0.000421 ± 0.024
2,CUUAAGGAGACGAUCUACUGGGUUACCAA,0.00124 ± 0.0031
3,CUUAAGGAGACCUUCUACUGGGGUUACCUAA,0.00145 ± 0.008
4,CUUAAGGAGAGGAUCUACUUGGGUUACCUAA,0.00017 ± 0.031
5,CUUAAGGAGACGAUCUACCUGGGUUACCUAA,0.0011 ± 0.0094
6,CAAUACCUCAGGAUCUACUGGGUUACCUAA,0.656 ± 0.061
7,CUUAAGGAGAGGAUACUACUGGGUUACCUAA,0.00359 ± 0.0039
8,CUUAAGGAGUGCAUCAACUGGGUUACCUAA,0.000244 ± 0.043
9,CUUAAGGAGACCUUGUACUGGGUUACCUAA,0.00143 ± 0.0065
10,CUUAAGGAGACCUAGAUCUGGGUGUACCUAA,0.000206 ± 0.04
11,CUUAAGGAGACGAUCUUCUGGGUUAGCUAA,0.00149 ± 0.0044
12,CUUAAGGAGACGAUCUACUGGGUUACCUGAA,0.00108 ± 0.008
13,CAAUUCCUCUGGAAGUACUGGGUUACCUAA,0.651 ± 0.044
14,CUUAAGGUCUGGAUCUCCUGGGUUACCUAA,0.0565 ± 0.013
15,CUUAAGGAGAGGAUCUAUUGGGUUACCUAA,0.00262 ± 0.0043
16,GAAUUCCUCUGCAUCUACUGCGUUACCUAA,0.591 ± 0.054
17,CUAUUCCUCUUGGAUCUACUGGGUUACCUAA,0.433 ± 0.046
18,CUUAAGGAGACGAUCUACUGGGAUACGUAA,0.000467 ± 0.01
19,CUUAAGGAGACCCUCUACUGGGUUACCUAA,0.00201 ± 0.0036
20,CUUAAGGAGUGGAUCUACUGGCUUACCUUA,0.00339 ± 0.0076
21,CUUAAGGAGAGGAUCUACUGGGAUUACCUAA,0.000233 ± 0.023
22,CUUAAGGAGACGAUCUACUGGGUUACCGAA,0.00143 ± 0.0035
23,CAAUUCCUCUGGUUCUACUGGGUUACGUAA,0.688 ± 0.045
24,CUUAAGGAGACCUAGUACUGGGUUACCAA,0.00077 ± 0.0068
